Measured values reported in patent publication US20230337677A1, “ARYL AND PYRIDYL AMIDE PESTICIDES AND COMPOSITIONS THEREOF” (University of Florida Research Foundation, Incorporated, priority 2019, published 2023).

Assays:
[1] = system: Aedes aegypti mosquitoes, pyrethroid-resistant Puerto Rico strain; experiment: Vapor repellency glass tube assay (1 h), resistant strain; format: in vivo; settings: value in brackets after the second EC50
[2] = system: Aedes aegypti mosquitoes, pyrethroid-resistant Puerto Rico strain; experiment: Vapor toxicity (24 h lethality under constant exposure in glass tubes), resistant strain; settings: value in brackets after the second LC50

SMILES	Resistance ratio (RR) of 1 h Repellency EC50 [1]	Resistance ratio (RR)=24 h LC50 PR/24 h LC50 OR [2]
CCN(CC)C(=O)c1cccc(C)c1 [DEET, N,N-diethyl-m-toluamide, reference compound]	(2.3)	–
C/C=C/C1C(C(=O)OCc2c(F)c(F)c(COC)c(F)c2F)C1(C)C (centres unmarked) [Metofluthrin, metofluthrin]	(40)	(51)
CC1(C)[C@H](C=C(Cl)Cl)[C@H]1C(=O)OCc1c(F)c(F)cc(F)c1F [Transfluthrin, transfluthrin]	(4.6)	(48)
